Test results taken from US8901156B2, “Compounds and methods” (Tempero Pharmaceuticals, Inc., priority 2010, dated 2014).
Some results were stated once for a whole list of compounds, not compound by compound.

Amino acid sequences for entries named in this document (tags omitted). Residues count along the entry.
UniProt Q9UKV0, 1-1066 isoform Q9UKV0-5: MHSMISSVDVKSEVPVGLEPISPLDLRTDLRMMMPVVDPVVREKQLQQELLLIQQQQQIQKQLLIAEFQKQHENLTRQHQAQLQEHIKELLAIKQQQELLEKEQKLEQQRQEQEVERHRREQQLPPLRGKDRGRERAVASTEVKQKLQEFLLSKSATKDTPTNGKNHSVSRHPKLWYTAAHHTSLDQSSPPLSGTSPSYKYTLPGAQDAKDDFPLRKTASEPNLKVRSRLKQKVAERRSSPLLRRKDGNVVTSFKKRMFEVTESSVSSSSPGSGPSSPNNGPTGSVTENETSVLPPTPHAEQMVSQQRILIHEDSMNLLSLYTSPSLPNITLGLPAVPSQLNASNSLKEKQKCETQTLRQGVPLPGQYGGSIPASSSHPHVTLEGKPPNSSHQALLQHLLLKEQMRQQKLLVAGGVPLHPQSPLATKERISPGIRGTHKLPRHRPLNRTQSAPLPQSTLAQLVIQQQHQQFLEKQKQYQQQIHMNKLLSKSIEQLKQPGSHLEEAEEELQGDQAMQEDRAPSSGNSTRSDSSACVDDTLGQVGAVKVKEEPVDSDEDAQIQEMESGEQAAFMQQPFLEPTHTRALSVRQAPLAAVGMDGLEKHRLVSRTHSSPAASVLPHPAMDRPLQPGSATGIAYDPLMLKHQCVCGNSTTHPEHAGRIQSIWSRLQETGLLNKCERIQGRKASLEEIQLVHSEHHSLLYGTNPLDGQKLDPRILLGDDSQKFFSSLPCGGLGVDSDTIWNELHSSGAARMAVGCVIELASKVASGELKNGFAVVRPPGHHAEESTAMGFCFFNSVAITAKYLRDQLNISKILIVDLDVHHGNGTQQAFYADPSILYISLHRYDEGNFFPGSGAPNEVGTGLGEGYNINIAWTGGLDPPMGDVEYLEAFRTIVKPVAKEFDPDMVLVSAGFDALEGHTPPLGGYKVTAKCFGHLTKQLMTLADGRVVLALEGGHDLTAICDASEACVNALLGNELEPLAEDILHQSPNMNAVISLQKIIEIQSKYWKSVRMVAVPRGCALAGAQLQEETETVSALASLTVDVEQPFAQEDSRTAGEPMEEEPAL

Biological target: T1, Recombinant HDAC9 isoform 4 (Homo sapiens, UniProt Q9UKV0)
T1 construct: purchased BPS Bioscience
Assay: Histone Deacetylase 9 (HDAC9) inhibition assay, fluorogenic substrate
Type: biochemical
Conditions: mean of a minimum of 2 experiments; 11 point 3x dilution series from 100 uM; substrate 4.5 uM

SMILES | mean pIC50, inhibition of HDAC9
O=C(NCC1(c2nc(-c3ccc(Cl)cc3)cs2)CCOCC1)c1cccc(-c2noc(C(F)(F)F)n2)c1 [Example 14, N-((4-(4-(4-Chlorophenyl)thiazol-2-yl)tetrahydro-2H-pyran-4-yl)methyl)-3-(5-(trifluoromethyl)-1,2,4-oxadiazol-3-yl)benzamide] | greater than 4.8
O=C(NCCc1coc(-c2ccccc2F)n1)c1cncc(-c2noc(C(F)(F)F)n2)c1 [Example 112, N-(2-(2-(2-Fluorophenyl)oxazol-4-yl)ethyl)-5-(5-(trifluoromethyl)-1,2,4-oxadiazol-3-yl)nicotinamide] | greater than 4.8
CC(C)(CNC(=O)c1cccc(-c2noc(C(F)(F)F)n2)c1)c1nc(-c2ccccc2)n[nH]1 [Example 64, N-(2-Methyl-2-(3-phenyl-1H-1,2,4-triazol-5-yl)propyl)-3-(5-(trifluoromethyl)-1,2,4-oxadiazol-3-yl)benzamide] | greater than 4.8
CN(C)C(CNC(=O)c1cccc(-c2noc(C(F)(F)F)n2)c1)c1nc(-c2ccccc2)cs1 (stereo not shown) [Example 47, N-(2-(Dimethylamino)-2-(4-phenylthiazol-2-yl)ethyl)-3-(5-(trifluoromethyl)-1,2,4-oxadiazol-3-yl)benzamide] | greater than 4.8
CN1CCC(CNC(=O)c2cccc(-c3noc(C(F)(F)F)n3)c2)(c2cccc(-c3ccccc3)c2)CC1 [Example 106, N-((4-([1,1′-Biphenyl]-3-yl)-1-methylpiperidin-4-yl)methyl)-3-(5-(trifluoromethyl)-1,2,4-oxadiazol-3-yl)benzamide] | greater than 4.8
CN(C)CCOc1ccccc1CNC(=O)c1cccc(-c2noc(C(F)(F)F)n2)c1 [Example 3, N-(2-(2-(Dimethylamino)ethoxy)benzyl)-3-(5-(trifluoromethyl)-1,2,4-oxadiazol-3-yl)benzamide] | greater than 4.8
O=C(CCc1nc(-c2ccc(F)cc2)cs1)Nc1cccc(-c2noc(C(F)(F)F)n2)c1 [Example 50, 3-(4-(4-Fluorophenyl)thiazol-2-yl)-N-(3-(5-(trifluoromethyl)-1,2,4-oxadiazol-3-yl)phenyl)propanamide] | greater than 4.8
O=C(NCc1ccc(-n2ccnc2)cc1)c1cccc(-c2noc(C(F)(F)F)n2)c1 [Example 4, N-(4-(1H-Imidazol-1-yl)benzyl)-3-(5-(trifluoromethyl)-1,2,4-oxadiazol-3-yl)benzamide] | greater than 4.8
O=C(NCC1(c2cc(-c3ccccc3)cs2)CCOCC1)c1cccc(-c2noc(C(F)(F)F)n2)c1 [Example 9, N-((4-(4-Phenylthiophen-2-yl)tetrahydro-2H-pyran-4-yl)methyl)-3-(5-(trifluoromethyl)-1,2,4-oxadiazol-3-yl)benzamide] | greater than 4.8
Cc1ncc(-c2noc(C(F)(F)F)n2)cc1C(=O)NCC(C)(C)c1nc(-c2ccc(Cl)cc2)cs1 [Example 75, N-(2-(4-(4-Chlorophenyl)thiazol-2-yl)-2-methylpropyl)-2-methyl-5-(5-(trifluoromethyl)-1,2,4-oxadiazol-3-yl)nicotinamide] | greater than 4.8
CC(C)(CNC(=O)c1cccc(-c2noc(C(F)(F)F)n2)c1)c1csc(-c2ccc(Cl)cc2)n1 [Example 41, N-(2-(2-(4-chlorophenyl)thiazol-4-yl)-2-methylpropyl)-3-(5-(trifluoromethyl)-1,2,4-oxadiazol-3-yl)benzamide] | greater than 4.8
CC(C)(CNC(=O)c1cc(-c2noc(C(F)(F)F)n2)ccc1Cl)c1coc(-c2ccc(F)cc2)n1 [Example 108, 2-Chloro-N-(2-(2-(4-fluorophenyl)oxazol-4-yl)-2-methylpropyl)-5-(5-(trifluoromethyl)-1,2,4-oxadiazol-3-yl)benzamide] | greater than 4.8
COc1ccc(-c2csc(C3(CNC(=O)c4cccc(-c5noc(C(F)(F)F)n5)c4)CCOCC3)n2)cc1 [Example 13, N-((4-(4-(4-Methoxyphenyl)thiazol-2-yl)tetrahydro-2H-pyran-4-yl)methyl)-3-(5-(trifluoromethyl)-1,2,4-oxadiazol-3-yl)benzamide] | greater than 4.8
O=C(NCCc1coc(-c2ccccc2)n1)c1cncc(-c2noc(C(F)(F)F)n2)c1 [Example 127, N-(2-(2-Phenyloxazol-4-yl)ethyl)-5-(5-(trifluoromethyl)-1,2,4-oxadiazol-3-yl)nicotinamide] | greater than 4.8
CC(C)(CNC(=O)c1cccc(-c2noc(C(F)(F)F)n2)c1)c1coc(-c2ccc(Cl)cc2)n1 [Example 131, N-(2-(2-(4-Chlorophenyl)oxazol-4-yl)-2-methylpropyl)-3-(5-(trifluoromethyl)-1,2,4-oxadiazol-3-yl)benzamide] | greater than 4.8
CN(C)CCC(CNC(=O)c1cncc(-c2noc(C(F)(F)F)n2)c1)c1coc(-c2ccc(F)cc2)n1 (stereo not shown) [Example 101, N-(4-(Dimethylamino)-2-(2-(4-fluorophenyl)oxazol-4-yl)butyl)-5-(5-(trifluoromethyl)-1,2,4-oxadiazol-3-yl)nicotinamide] | greater than 4.8

SMILES | mean pIC50, inhibition of HDAC9
O=C(NCC1(c2nc(-c3ccccc3)cs2)CCOCC1)c1cncc(-c2noc(C(F)(F)F)n2)c1 [Example 8, N-((4-(4-phenylthiazol-2-yl)tetrahydro-2H-pyran-4-yl)methyl)-5-(5-(trifluoromethyl)-1,2,4-oxadiazol-3-yl)nicotinamide] | greater than 4.8
FC(F)(F)c1nc(-c2cccc(C(NCC3(c4nc(-c5ccccc5)cs4)CCOCC3)C(F)(F)F)c2)no1 (stereo not shown) [Example 61, 2,2,2-Trifluoro-N-((4-(4-phenylthiazol-2-yl)tetrahydro-2H-pyran-4-yl)methyl)-1-(3-(5-(trifluoromethyl)-1,2,4-oxadiazol-3-yl)phenyl)ethanamine] | greater than 4.8
O=C(NCC1(c2ccc(C(F)(F)F)cc2)CCOCC1)c1cccc(-c2noc(C(F)(F)F)n2)c1 [Example 6, 3-(5-(Trifluoromethyl)-1,2,4-oxadiazol-3-yl)-N-((4-(4-(trifluoromethyl)phenyl)tetrahydro-2H-pyran-4-yl)methyl)benzamide] | greater than 4.8
N#CCCN(Cc1cccnc1)C(=O)c1cccc(-c2noc(C(F)(F)F)n2)c1 [Example 5, N-(2-Cyanoethyl)-N-(pyridin-3-ylmethyl)-3-(5-(trifluoromethyl)-1,2,4-oxadiazol-3-yl)benzamide] | greater than 4.8
O=C(NCCc1coc(-c2cccc(F)c2)n1)c1cncc(-c2noc(C(F)(F)F)n2)c1 [Example 74, N-(2-(2-(3-Fluorophenyl)oxazol-4-yl)ethyl)-5-(5-(trifluoromethyl)-1,2,4-oxadiazol-3-yl)nicotinamide] | greater than 4.8
CC(C)(CNC(=O)c1cc(F)cc(-c2noc(C(F)(F)F)n2)c1)c1nc(-c2ccc(F)cc2)cs1 [Example 26, 3-Fluoro-N-(2-(4-(4-fluorophenyl)thiazol-2-yl)-2-methylpropyl)-5-(5-(trifluoromethyl)-1,2,4-oxadiazol-3-yl)benzamide] | greater than 4.8
O=C(NCCc1nc(-c2ccc(Cl)cc2)n[nH]1)c1cccc(-c2noc(C(F)(F)F)n2)c1 [Example 63, N-(2-(3-(4-Chlorophenyl)-1H-1,2,4-triazol-5-yl)ethyl)-3-(5-(trifluoromethyl)-1,2,4-oxadiazol-3-yl)benzamide] | greater than 4.8
O=C(NCC1(c2csc(-c3ccccc3)n2)CCOCC1)c1cccc(-c2noc(C(F)(F)F)n2)c1 [Example 12, N-((4-(2-Phenylthiazol-4-yl)tetrahydro-2H-pyran-4-yl)methyl)-3-(5-(trifluoromethyl)-1,2,4-oxadiazol-3-yl)benzamide] | greater than 4.8
O=C(NCCc1nc(-c2ccc(F)cc2)n[nH]1)c1cccc(-c2noc(C(F)(F)F)n2)c1 [Example 62, N-(2-(3-(4-Fluorophenyl)-1H-1,2,4-triazol-5-yl)ethyl)-3-(5-(trifluoromethyl)-1,2,4-oxadiazol-3-yl)benzamide] | greater than 4.8
CC(C)(CNC(=O)c1cccc(-c2coc(C(=O)C(F)(F)F)c2)c1)c1coc(-c2ccc(F)cc2)n1 [Example 139, N-(2-(2-(4-Fluorophenyl)oxazol-4-yl)-2-methylpropyl)-3-(5-(2,2,2-trifluoroacetyl)furan-3-yl)benzamide] | greater than 4.8
CC(CNC(=O)c1cccc(-c2noc(C(F)(F)F)n2)c1)c1coc(-c2ccc(F)cc2)n1 (stereo not shown) [Example 73, N-(2-(2-(4-Fluorophenyl)oxazol-4-yl)propyl)-3-(5-(trifluoromethyl)-1,2,4-oxadiazol-3-yl)benzamide] | greater than 4.8
O=C(NCC1(c2nc(-c3cc(F)cc(F)c3)cs2)CCOCC1)c1cccc(-c2noc(C(F)(F)F)n2)c1 [Example 124, N-((4-(4-(3,5-Difluorophenyl)thiazol-2-yl)tetrahydro-2H-pyran-4-yl)methyl)-3-(5-(trifluoromethyl)-1,2,4-oxadiazol-3-yl)benzamide] | greater than 4.8
O=C(NCC1(c2nc(-c3ccccc3)cs2)CCOCC1)c1cccc(-c2noc(C(=O)C(F)(F)F)n2)c1 [Example 141, N-((4-(4-Phenylthiazol-2-yl)tetrahydro-2H-pyran-4-yl)methyl)-3-(5-(2,2,2-trifluoroacetyl)-1,2,4-oxadiazol-3-yl)benzamide] | greater than 4.8
CC(C)(CNC(=O)c1cccc(-c2noc(C(F)(F)F)n2)c1)c1nc(-c2ccc(F)cc2)n[nH]1 [Example 66, N-(2-(3-(4-Fluorophenyl)-1H-1,2,4-triazol-5-yl)-2-methylpropyl)-3-(6-(trifluoromethyl)-1,2,4-oxadiazol-3-yl)benzamide] | greater than 4.8
O=C(NCCc1csc(-c2ccc(F)cc2)n1)c1cccc(-c2noc(C(F)(F)F)n2)c1 [Example 59, N-(2-(2-(4-Fluorophenyl)thiazol-4-yl)ethyl)-3-(5-(trifluoromethyl)-1,2,4-oxadiazol-3-yl)benzamide] | greater than 4.8
